In PubChem BioAssay AID1347075 (National Center for Advancing Translational Sciences (NCATS), 2019):
About 5,500 (1.4%) of roughly 400,000 compounds were called active. This list was built around the results that the source calls inconclusive (neither active nor inactive); the mix of calls is not that of the screen. Calls follow the shape of the dose curve; as a rule, active = well fitted cell-killing curve with a large enough effect; inconclusive = small, poorly fitted or top-dose-only effect, or effect the other way; inactive = flat fitted curve, though single readings scatter. Potencies of inconclusive entries are doubtful fits and often do not repeat.

Assay: qHTS assay for MDR1-selective chemotherapeutics: Primary screen using the parental adenocarcinoma cell KB-3-1; also: nearly all actives have a fitted effect of over 60% in size
Conditions: KB-3-1 viability, CellTiter-Glo ATP luminescence, 72 h; activity change, negative = cytotoxic: at 46.1 µM (top of the series)
How it was run: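 Cytotoxicity in the drug-sensitive parental line KB-3-1 was scored as loss of CellTiter-Glo luminescence following 72 h incubation with compound. Values come from curve fitting of normalized concentration-response data.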
% is scaled to controls: 0 for no effect and ±100 for the full control effect; potency is read from the fitted curve at half-maximal effect.

Structure (SMILES) | Potency | activity change, negative = cytotoxic
Cn1cc(C(C[N+](=O)[O-])c2ccccc2)c2ccccc21 (stereo not drawn) | inconclusive: 29.1 µM [cytotoxic, single point] | –
CN1CCN(C(=S)NC(=O)c2ccccc2Cl)CC1 | inactive | –
O=[N+]([O-])c1ccc(O)c(C=NN2CCCCC2)c1 | inactive | –
Cn1c(=O)c2cc(NC(=O)Cc3cccnc3)ccc2n1-c1ccc2ccccc2c1 | inconclusive: 29.1 µM [cytotoxic, single point] | –
Nc1ccc(N2CCN(c3cccc(Cl)c3)CC2)cc1 | inconclusive: 29.1 µM [cytotoxic, single point] | –
O=C(NCc1ccc2c(c1)OCO2)C1CCCN(S(=O)(=O)c2cccnc2)C1 (stereo not drawn) | – | inconclusive: -22.9%
CC(=O)c1ccc(S(=O)(=O)N2CCN(C(=O)c3ccc(-n4cncn4)c([N+](=O)[O-])c3)CC2)cc1 | inconclusive: 14.6 µM [rising, single point] | –
CCC(CO)Nc1ncnc2c1cnn2-c1ccc(C)cc1 (stereo not drawn) | inactive | –
CCOC(=O)c1cc(-c2ccccc2)sc1NC(=O)C(C)OC(=O)c1cccnc1Cl (stereo not drawn) | inactive | –
CCOc1ccc(NS(=O)(=O)c2ccc(C(=O)N3CCCC(C)C3)cc2)cc1 (stereo not drawn) | inconclusive: 29.1 µM [cytotoxic, single point] | –
O=C(Nc1cccc(S(=O)(=O)Nc2ccccc2Cl)c1)c1ccc(Cl)nc1 | active: 5.17 µM | –
O=C(NCc1ccc2c(c1)OCO2)c1ccc2c(c1)N(Cc1ccc(F)cc1)C(=O)c1ccccc1S2=O (stereo not drawn) | inactive | –
CCN(CC)C(=O)c1ccc(COc2ccc(Cl)c(C)c2)o1 | inconclusive: 14.6 µM [cytotoxic, partial curve, poor fit] | –
COC(=O)Nc1ccc(S(=O)(=O)N2CCCc3ccccc32)cc1 | active: 1.46 µM | –
O=C(NNc1ccnc2cc(Cl)ccc12)C1CCCCC1 | active: 5.8 µM | –
O=C(NCCCN1CCOCC1)c1sc2cc(F)ccc2c1Cl | inconclusive: 25.9 µM [rising, partial curve, poor fit] | –
CNc1oc(Cc2ccccc2)nc1S(=O)(=O)c1ccc(Cl)cc1 | inconclusive: 25.9 µM [rising, single point] | –
O=C1/C(=C\c2cccc(O)c2O)SC(=S)N1Cc1ccccc1 | inconclusive: 11.6 µM [cytotoxic, partial curve, poor fit] | –
Cc1ccccc1NC(=O)Nc1nc(CN)cs1 | inactive | –
O=S(=O)(Nc1cc(Cl)ccc1N1CCCCC1)c1cccs1 | inconclusive: 29.1 µM [cytotoxic, single point] | –
CCCn1c(=N)n(CC(=O)c2ccc(OCC(=O)OC)cc2)c2ccccc21 | inconclusive: 29.1 µM [cytotoxic, single point] | –
CCC1CCCCN1C(=O)c1nn(-c2ccc(C)cc2)c(=O)c2c1c1ccccc1n2C (stereo not drawn) | inactive | –
COc1cc(C2NC(=O)N(C)C(C)=C2C(=O)OCc2ccccc2)cc(Br)c1O (stereo not drawn) | inactive | –
O=C(Nc1nnc(COc2ccc(Cl)cc2)s1)c1cccs1 | inconclusive: 32.6 µM [rising, partial curve, poor fit] | –

Record cards, from the list above. Order of values: Potency	activity change, negative = cytotoxic
`CCOC(=O)c1cc(-c2ccccc2)sc1NC(=O)C(C)OC(=O)c1cccnc1Cl` (stereo not drawn) is listed as inactive	–
`O=[N+]([O-])c1ccc(O)c(C=NN2CCCCC2)c1` is listed as inactive	–
`COc1cc(C2NC(=O)N(C)C(C)=C2C(=O)OCc2ccccc2)cc(Br)c1O` (stereo not drawn) is listed as inactive	–

Next part

Structure (SMILES) | Potency | activity change, negative = cytotoxic
Cc1[nH]c2ccccc2c1/C=N/NC(=O)c1cc(-c2ccccc2)n[nH]1 | inactive | –
Cc1cccc(Oc2ccc(Cl)cc2N)c1 | inconclusive: 23.1 µM [cytotoxic, single point] | –
CCOc1ccc(C(=O)Nc2ccc(S(=O)(=O)N3CCCCC3c3cccnc3)cc2)cc1 (stereo not drawn) | inconclusive: 20.6 µM [cytotoxic, partial curve, poor fit] | –
NS(=O)(=O)c1ccc(N/N=C2/CCCCC2C2CCCCC2)c([N+](=O)[O-])c1 (stereo not drawn) | inconclusive: 20.6 µM [cytotoxic, single point] | –
COc1cc(SC#N)ccc1N=Cc1c(C)[nH]n(-c2ccc(C)cc2)c1=O | inconclusive: 4.11 µM [cytotoxic, full curve] | –
Cc1noc(C)c1S(=O)(=O)N(CC(=O)NCc1ccccc1Cl)c1ccc(C(C)C)cc1 | inactive | –
COc1ncnc2c1ncn2CCCNCc1ccco1 | inactive | –
CCOC(=O)CSc1nn(-c2ccccc2)c(=S)s1 | inactive | –
O=C(NCCc1ccccc1F)C1CC(=O)N(c2ccc3c(c2)OCCO3)C1 (stereo not drawn) | inactive | –
CN1CCC(N(C)C(=O)/C(C#N)=C/c2ccccc2)CC1 | inactive | –
Cc1ccc(OCC(=O)Nc2ccc(O)c(-c3nc4ccccc4o3)c2)cc1 | inconclusive: 20.6 µM [cytotoxic, single point] | –
Cc1ccc(Nc2cc(C)nc3ncnn23)c(Cl)c1 | inconclusive: 14.6 µM [cytotoxic, partial curve, poor fit] | –
CCOC(=O)C1CCCN(C(=O)c2cccc(S(=O)(=O)N(C)c3c(C)n(C)n(-c4ccccc4)c3=O)c2)C1 (stereo not drawn) | inconclusive: 29.1 µM [rising, single point] | –
Cn1cc(Br)c(C(=O)NC(=S)N2CCN(c3ccccn3)CC2)n1 | inactive | –
Cc1ccc(N(CC(=O)N2CCN(c3ccc(Cl)cc3)CC2)S(=O)(=O)c2c(C)noc2C)cc1 | inconclusive: 29.1 µM [cytotoxic, single point] | –
c1ccc2c(c1)ncn2CCCOc1ccc2c(c1)CCC2 | inconclusive: 29.1 µM [cytotoxic, single point] | –
COc1ccccc1NC(=O)N1CCN(c2ccnc3cc(Cl)ccc23)CC1 | inactive | –
CCOC(=O)c1c(NC(=O)N/N=C/c2ccccc2OCC)sc(C(C)=O)c1C | active: 16.4 µM | –
Cc1csc(NC(=O)c2ccc3c(=O)n4c(nc3c2)CCCCC4)n1 | inconclusive: 20.6 µM [cytotoxic, single point] | –
O=C(Nc1ccc(N2CCN(C(=O)c3ccc(Cl)cc3)CC2)cc1)c1ccc(Br)o1 | inactive | –
N#Cc1c(N)nc(Sc2ccc(Cl)cc2)c(C#N)c1-c1ccccc1Cl | active: 4.61 µM | –
O=c1[nH]ncc(NCCc2ccccc2)c1Cl | inconclusive: 5.8 µM [cytotoxic, full curve, poor fit] | –
CCOC(=O)N1CCN(C(=O)c2ccc(S(=O)(=O)Nc3ccc(C)cc3)cc2)CC1 | active: 7.31 µM | –
C=CCCC(=O)N1CCC(CCC(=O)NC2CC2)CC1 | inactive | –
